The values that follow come from doi:10.1101/2023.12.13.571451 (bioRxiv, 2023).

These are yes or no findings as the source states them, for the method shown. Some results given as binding are weak or reduced against the parent protein; the word gives no strength. Sequences can lack the tags named with a protein.

The target of experiment [1] is T1, Cdc19-V5 (pyruvate kinase) (S. cerevisiae) (UniProt P00549).
T1 sequence: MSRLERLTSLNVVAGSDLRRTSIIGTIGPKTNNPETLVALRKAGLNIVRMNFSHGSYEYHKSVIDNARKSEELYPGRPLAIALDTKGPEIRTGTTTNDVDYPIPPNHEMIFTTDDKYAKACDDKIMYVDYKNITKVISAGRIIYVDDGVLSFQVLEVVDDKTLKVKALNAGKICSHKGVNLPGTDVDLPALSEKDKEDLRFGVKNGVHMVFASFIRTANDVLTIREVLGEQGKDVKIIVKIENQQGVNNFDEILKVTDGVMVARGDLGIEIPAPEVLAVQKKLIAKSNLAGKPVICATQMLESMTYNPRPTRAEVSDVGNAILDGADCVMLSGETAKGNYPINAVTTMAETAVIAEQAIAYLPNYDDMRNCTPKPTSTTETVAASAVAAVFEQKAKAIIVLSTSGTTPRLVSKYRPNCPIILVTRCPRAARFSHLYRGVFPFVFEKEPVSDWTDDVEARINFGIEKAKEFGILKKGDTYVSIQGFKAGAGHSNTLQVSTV
In words: two-dimensional SDS-PAGE.

For experiment [2], the target named is T2, Gnd1-V5 (6-phosphogluconate dehydrogenase) (S. cerevisiae) (UniProt P38720).
T2 sequence: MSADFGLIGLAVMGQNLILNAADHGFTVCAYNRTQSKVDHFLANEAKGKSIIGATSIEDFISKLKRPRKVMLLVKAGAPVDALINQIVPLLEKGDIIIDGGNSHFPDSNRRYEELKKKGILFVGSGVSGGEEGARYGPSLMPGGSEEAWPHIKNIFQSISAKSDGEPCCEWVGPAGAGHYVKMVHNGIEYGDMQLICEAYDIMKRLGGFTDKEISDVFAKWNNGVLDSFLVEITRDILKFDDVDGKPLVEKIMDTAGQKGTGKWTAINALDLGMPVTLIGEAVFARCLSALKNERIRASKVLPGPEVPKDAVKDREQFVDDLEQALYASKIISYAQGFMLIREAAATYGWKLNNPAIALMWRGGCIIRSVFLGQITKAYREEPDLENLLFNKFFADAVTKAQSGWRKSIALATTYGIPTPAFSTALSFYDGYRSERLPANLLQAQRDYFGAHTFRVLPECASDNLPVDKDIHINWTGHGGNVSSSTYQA
As to the kind of experiment: two-dimensional SDS-PAGE.

B1: Tsa1^C171S-HA (resolving cysteine mutant) (protein, UniProt P34760 1-196)
chain: MVAQVQKQAPTFKKTAVVDGVFDEVSLDKYKGKYVVLAFIPLAFTFVCPTEIIAFSEAAKKFEEQGAQVLFASTDSEYSLLAWTNIPRKEGGLGPINIPLLADTNHSLSRDYGVLIEEEGVALRGLFIIDPKGVIRHITINDLPVGRNVDEALRLVEAFQWTDKNGTVLPSNWTPGAATIKPTVEDSKEYFEAANK
Regarding B1, the binding result in experiment [1] and in experiment [2] was “binds” in each case.
